This passage reports binding results from publication doi:10.1101/2020.10.23.342113.

These are yes or no findings as the source states them, for the method shown. Binding seen in cells or lysates may run through a third protein. These calls come from enrichment with a bait or labelling near it, and not all partners need be listed.

To fix the notation:
B1: NUFIP2, endogenous (protein, UniProt Q7Z417 1-695)
chain: MEEKPGQPQPQHHHSHHHPHHHPQQQQQQPHHHHHYYFYNHSHNHHHHHHHQQPHQYLQHGAEGSPKAQPKPLKHEQKHTLQQHQETPKKKTGYGELNGNAGEREISLKNLSSDEATNPISRVLNGNQQVVDTSLKQTVKANTFGKAGIKTKNFIQKNSMDKKNGKSYENKSGENQSVDKSDTIPIPNGVVTNNSGYITNGYMGKGADNDGSGSESGYTTPKKRKARRNSAKGCENLNIVQDKIMQQETSVPTLKQGLETFKPDYSEQKGNRVDGSKPIWKYETGPGGTSRGKPAVGDMLRKSSDSKPGVSSKKFDDRPKGKHASAVASKEDSWTLFKPPPVFPVDNSSAKIVPKISYASKVKENLNKTIQNSSVSPTSSSSSSSSTGETQTQSSSRLSQVPMSALKSVTSANFSNGPVLAGTDGNVYPPGGQPLLTTAANTLTPISSGTDSVLQDMSLTSAAVEQIKTSLFIYPSNMQTMLLSTAQVDLPSQTDQQNLGDIFQNQWGLSFINEPSAGPETVTGKSSEHKVMEVTFQGEYPATLVSQGAEIIPSGTEHPVFPKAYELEKRTSPQVLGSILKSGTTSESGALSLEPSHIGDLQKADTSSQGALVFLSKDYEIESQNPLASPTNTLLGSAKEQRYQRGLERNDSWGSFDLRAAIVYHTKEMESIWNLQKQDPKRIITYNEAMDSPDQ
B2: ATXN2l, endogenous (protein, UniProt Q8WWM7 1-1075)
chain: MLKPQPLQQPSQPQQPPPTQQAVARRPPGGTSPPNGGLPGPLATSAAPPGPPAAASPCLGPVAAAGSGLRRGAEGILAPQPPPPQQHQERPGAAAIGSARGQSTGKGPPQSPVFEGVYNNSRMLHFLTAVVGSTCDVKVKNGTTYEGIFKTLSSKFELAVDAVHRKASEPAGGPRREDIVDTMVFKPSDVMLVHFRNVDFNYATKDKFTDSAIAMNSKVNGEHKEKVLQRWEGGDSNSDDYDLESDMSNGWDPNEMFKFNEENYGVKTTYDSSLSSYTVPLEKDNSEEFRQRELRAAQLAREIESSPQYRLRIAMENDDGRTEEEKHSAVQRQGSGRESPSLASREGKYIPLPQRVREGPRGGVRCSSSRGGRPGLSSLPPRGPHHLDNSSPGPGSEARGINGGPSRMSPKAQRPLRGAKTLSSPSNRPSGETSVPPPPAVGRMYPPRSPKSAAPAPISASCPEPPIGSAVPTSSASIPVTSSVSDPGVGSISPASPKISLAPTDVKELSTKEPGRTLEPQELARIAGKVPGLQNEQKRFQLEELRKFGAQFKLQPSSSPENSLDPFPPRILKEEPKGKEKEVDGLLTSEPMGSPVSSKTESVSDKEDKPPLAPSGGTEGPEQPPPPCPSQTGSPPVGLIKGEDKDEGPVAEQVKKSTLNPNAKEFNPTKPLLSVNKSTSTPTSPGPRTHSTPSIPVLTAGQSGLYSPQYISYIPQIHMGPAVQAPQMYPYPVSNSVPGQQGKYRGAKGSLPPQRSDQHQPASAPPMMQAAAAAGPPLVAATPYSSYIPYNPQQFPGQPAMMQPMAHYPSQPVFAPMLQSNPRMLTSGSHPQAIVSSSTPQYPSAEQPTPQALYATVHQSYPHHATQLHAHQPQPATTPTGSQPQSQHAAPSPVQHQAGQAPHLGSGQPQQNLYHPGALTGTPPSLPPGPSAQSPQSSFPQPAAVYAIHHQQLPHGFTNMAHVTQAHVQTGITAAPPPHPGAPHPPQVMLLHPPQSHGGPPQGAVPQSGVPALSASTPSPYPYIGHPQGEQPGQAPGFPGGADDRIREFSLAGGIWHGRAEGLQVGQDARVLGGE
B3: Ras-GTPase-activating protein SH3-domain-binding protein 2 (G3BP2), endogenous (protein, UniProt Q9UN86 1-482)
chain: MVMEKPSPLLVGREFVRQYYTLLNKAPEYLHRFYGRNSSYVHGGVDASGKPQEAVYGQNDIHHKVLSLNFSECHTKIRHVDAHATLSDGVVVQVMGLLSNSGQPERKFMQTFVLAPEGSVPNKFYVHNDMFRYEDEVFGDSEPELDEESEDEVEEEQEERQPSPEPVQENANSGYYEAHPVTNGIEEPLEESSHEPEPEPESETKTEELKPQVEEKNLEELEEKSTTPPPAEPVSLPQEPPKAFSWASVTSKNLPPSGTVSSSGIPPHVKAPVSQPRVEAKPEVQSQPPRVREQRPRERPGFPPRGPRPGRGDMEQNDSDNRRIIRYPDSHQLFVGNLPHDIDENELKEFFMSFGNVVELRINTKGVGGKLPNFGFVVFDDSEPVQRILIAKPIMFRGEVRLNVEEKKTRAARERETRGGGDDRRDIRRNDRGPGGPRGIVGGGMMRDRDGRGPPPRGGMAQKLGSGRGTGQMEGRFTGQRR

The assay has as its target G3BP1 used as the bait for AP-MS (UniProt Q13283). Description: affinity purification with mass spectrometry.
Consider B1, for which the binding entry is recorded as “binds”.

As for B2, the binding result is recorded as “binds”.

With B3, the binding result is recorded as “binds”.
